These results are taken from publication PMC12196469 (Pharmaceutics, 2025).

This data set can be described thus: general procedure: Fmoc solid-phase peptide synthesis; H-His(Trt)-2-Cl-Trt Resin; HATU/DIPEA. To be noted: whole synthesis.

N3-PEG4-Cys-PEG3-HAIYPRH registered a crude yield of 48%.
